From PMC7862700 come the findings set out here.

What all share (test): DAPPL (digital affinity profiling via proximity ligation, sequencing)
Common to all, as to conditions: 10 mM Tris-HCl pH 7.5, 50 mM NaCl, 1 mM DTT, 4% glycerol, room temperature, 30 min; GST-TFs on glutathione beads, 16-mer random dsDNA library, 0.1% …; high values mean tight binding; double strand, one strand shown; scale: fold enrichment (6-mer frequency, TF over GST control)

One assay deals with T1, ELK1 (UniProt P19419).
T1 sequence: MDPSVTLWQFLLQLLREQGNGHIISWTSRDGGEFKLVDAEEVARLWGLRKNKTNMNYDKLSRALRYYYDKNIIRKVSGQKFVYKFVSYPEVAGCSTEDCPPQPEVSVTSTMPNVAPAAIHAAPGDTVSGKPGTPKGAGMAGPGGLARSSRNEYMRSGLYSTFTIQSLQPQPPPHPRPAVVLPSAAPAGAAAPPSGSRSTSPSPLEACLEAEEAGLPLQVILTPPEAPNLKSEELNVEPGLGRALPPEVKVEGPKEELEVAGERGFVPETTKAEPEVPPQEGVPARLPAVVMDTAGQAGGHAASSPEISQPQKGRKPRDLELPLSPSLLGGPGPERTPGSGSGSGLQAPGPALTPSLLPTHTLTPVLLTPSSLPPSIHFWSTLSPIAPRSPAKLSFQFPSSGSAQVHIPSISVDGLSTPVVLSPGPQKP

For another assay, the target named is T2, ELK3 (UniProt P41970).
T2 sequence: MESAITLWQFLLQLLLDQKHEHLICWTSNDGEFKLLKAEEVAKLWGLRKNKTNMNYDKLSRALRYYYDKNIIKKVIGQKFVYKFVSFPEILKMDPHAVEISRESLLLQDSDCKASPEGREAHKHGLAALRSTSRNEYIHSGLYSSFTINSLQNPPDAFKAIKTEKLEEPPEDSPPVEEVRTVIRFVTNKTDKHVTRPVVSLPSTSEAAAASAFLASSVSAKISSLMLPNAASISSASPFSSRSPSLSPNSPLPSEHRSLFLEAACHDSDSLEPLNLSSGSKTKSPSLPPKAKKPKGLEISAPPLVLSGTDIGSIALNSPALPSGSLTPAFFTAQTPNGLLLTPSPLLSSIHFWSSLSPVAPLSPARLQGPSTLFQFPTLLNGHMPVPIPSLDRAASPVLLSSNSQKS

A further assay has as its target T3, SPIC (UniProt Q8N5J4).
T3 sequence: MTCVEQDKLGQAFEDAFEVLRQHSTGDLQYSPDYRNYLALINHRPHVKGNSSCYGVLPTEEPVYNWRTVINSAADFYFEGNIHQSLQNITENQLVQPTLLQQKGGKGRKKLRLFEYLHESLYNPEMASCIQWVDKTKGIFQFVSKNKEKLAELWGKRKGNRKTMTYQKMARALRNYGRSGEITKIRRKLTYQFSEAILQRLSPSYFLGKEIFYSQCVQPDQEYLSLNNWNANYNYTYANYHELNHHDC

The target of another assay is T4, ETS2 (UniProt P15036).
T4 sequence: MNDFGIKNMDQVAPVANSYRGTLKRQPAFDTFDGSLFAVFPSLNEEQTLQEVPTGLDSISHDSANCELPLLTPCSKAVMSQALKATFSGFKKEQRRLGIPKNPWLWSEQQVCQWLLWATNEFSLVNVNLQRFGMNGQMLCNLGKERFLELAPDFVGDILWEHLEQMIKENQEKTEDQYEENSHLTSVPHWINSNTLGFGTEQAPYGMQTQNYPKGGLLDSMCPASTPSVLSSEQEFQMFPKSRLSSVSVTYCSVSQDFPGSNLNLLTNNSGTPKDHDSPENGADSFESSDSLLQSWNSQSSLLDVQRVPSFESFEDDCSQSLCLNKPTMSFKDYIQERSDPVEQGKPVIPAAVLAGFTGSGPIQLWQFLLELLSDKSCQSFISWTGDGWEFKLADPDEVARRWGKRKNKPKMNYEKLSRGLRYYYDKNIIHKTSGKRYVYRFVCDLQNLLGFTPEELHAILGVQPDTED

Another assay addresses T5, ETV3 (UniProt P41162-2).
T5 sequence: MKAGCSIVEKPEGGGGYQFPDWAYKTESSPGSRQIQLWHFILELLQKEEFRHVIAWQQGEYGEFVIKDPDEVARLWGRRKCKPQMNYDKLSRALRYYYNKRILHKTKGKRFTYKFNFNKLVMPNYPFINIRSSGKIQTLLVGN

Only a part is listed here, and it is no random draw. At the low end of the ranking the order means little.

In the case of CAAGAG, the binding signal with ELK1 was 0.721; with ELK3, 0.709; with SPIC, 0.857; in the assay with ETS2, 0.761; in the assay with ETV3, 0.742.
For CGTTGA, the binding signal with ELK1 came out at 0.767; with ELK3, 0.889; in the assay with SPIC it was 0.786; with ETS2 it was 0.745; with ETV3, 0.809.
With GCATAT, the binding signal is 0.956 with ELK1, 0.785 with SPIC, 0.918 with ETS2 and 0.939 with ETV3.
For the sequence CAGCAA, the binding signal came out at 0.997 in the assay with ELK1, 0.813 with SPIC, 0.938 with ETS2 and 0.901 with ETV3.
In the case of AGTCTA, the binding signal with ELK1 stood at 0.728; with ELK3 it was 0.692; with SPIC, 0.776; with ETS2 it was 0.75; with ETV3, 0.708.
As for AGACGT, the binding signal was 0.455 with ELK1; 0.475 with ELK3; 0.504 with SPIC; 0.479 in the assay with ETS2; 0.47 with ETV3.
As to AATCGG, the binding signal with ELK1 came to 0.532; in the assay with ELK3 it was 0.55; in the assay with SPIC it was 0.569; with ETS2, 0.518; in the assay with ETV3, 0.578.
For the sequence GTGTGC, the binding signal turned out to be 0.952 in the assay with ELK1; 0.891 in the assay with ELK3; 0.97 with SPIC; 0.873 with ETS2; 0.828 in the assay with ETV3.
Turning to ACTGTG, the binding signal with ELK1 was 0.444; with ELK3 it was 0.501; with SPIC, 0.435; in the assay with ETS2 it was 0.507; with ETV3, 0.469.
Take ACGTGG: the binding signal with ELK1 turned out to be 0.557; in the assay with ELK3, 0.502; in the assay with SPIC, 0.676; with ETS2 it was 0.614; in the assay with ETV3, 0.628.
For CGTCGG, the binding signal came to 0.457 with ELK1; 0.516 in the assay with ELK3; 0.425 with SPIC; 0.443 in the assay with ETS2; 0.418 in the assay with ETV3.
For AGTCGC, in that order: 0.541, 0.557, 0.567, 0.514 and 0.477.
Consider CAGTCG, for which the binding signal with ELK1 was determined as 0.176; in the assay with ELK3, 0.183; with SPIC, 0.202; with ETS2, 0.176; with ETV3 it was 0.179.
Turning to AAACGT, the binding signal with ELK1 came to 0.996; in the assay with SPIC, 0.939; with ETS2, 0.904; with ETV3 it was 0.935.
Take AGGAGA: the binding signal stood at 0.211 with ELK1; 0.229 in the assay with ELK3; 0.236 in the assay with SPIC; 0.212 with ETS2; 0.212 in the assay with ETV3.
Turning to GGTGTG, the binding signal in the assay with ELK1 worked out at 0.695; with ELK3, 0.723; with SPIC it was 0.826; with ETS2, 0.7; with ETV3, 0.744.
For GTGGGG, the binding signal was determined as 0.568 in the assay with ELK1; 0.648 in the assay with ELK3; 0.582 with SPIC; 0.612 in the assay with ETS2; 0.644 with ETV3.
Turning to GTAGGA, the binding signal in the assay with ELK1 was 0.565; with ELK3, 0.542; with SPIC it was 0.572; with ETS2, 0.633; with ETV3, 0.642.
For AGGGCG, in that order: 0.599, 0.607, 0.645, 0.568 and 0.547.
Turning to GATTGG, the binding signal turned out to be 0.886 with ELK1, 0.971 in the assay with SPIC, 0.836 with ETS2 and 0.745 with ETV3.
As for CAGTCC, the binding signal in the assay with ELK1 was 0.64; in the assay with ELK3, 0.616; with SPIC it was 0.604; with ETS2, 0.579; in the assay with ETV3, 0.658.
For TCAGAA, in that order: 0.89, 0.953, 0.864, 0.894 and 0.942.
Turning to CGAGGG, the binding signal with ELK1 worked out at 0.631; with ELK3, 0.674; with SPIC it was 0.633; with ETS2, 0.641; with ETV3, 0.609.
For ACACGT the same measures were 0.857, 0.789, 0.839, 0.799 and 0.773.
For GCCCGT, in that order: 0.586, 0.634, 0.528, 0.57 and 0.65.
Consider TGAGAG, for which the binding signal with ELK1 is 0.551; with ELK3 it was 0.62; in the assay with SPIC, 0.601; with ETS2, 0.564; with ETV3, 0.607.
As to TCGTGA, the binding signal with ELK1 amounted to 0.344; with ELK3 it was 0.31; in the assay with SPIC it was 0.298; with ETS2 it was 0.34; with ETV3, 0.333.
Turning to GAGTGT, the binding signal was 0.538 with ELK1; 0.465 in the assay with ELK3; 0.585 with SPIC; 0.532 with ETS2; 0.553 with ETV3.
For the sequence GGATAG, the binding signal is 0.752 with ELK1; 0.738 with ELK3; 0.746 with SPIC; 0.746 in the assay with ETS2; 0.747 with ETV3.
As for CAACAG, the binding signal in the assay with ELK1 stood at 0.914; with SPIC it was 0.744; with ETS2 it was 0.838.
For GGAAAG the same measures were 0.894, 0.9 and 0.925.
